Patent publication US4370331A, “L-Glaucine containing composition for cough relief” (Karl O. Helm Aktiengesellschaft, priority 1977, dated 1983)

These compounds were tested on cough pulses (assay: Citric acid aerosol cough test in guinea pigs, subcutaneous, 30 min (method of Friebel and Reichle), Comparative test 1). Conditions: s.c., percent deviation vs log dose, 3-100 mg/kg.
Type: in vivo
Procedure: In order to compare the anti-cough effectiveness of codeine phosphate with the effectiveness of the different isomers of glaucine hydrobromide, the testing method of Friebel and Reichle was used. 60 guinea pigs with weights between 200 and 300 g were divided up into ten groups of different sizes. Before administering the active substance, each animal was subjected, on the same day as the day of test with the active substance, for a period of 8 minutes to an aerosol of 20% citric acid, the animal being confined in a chamber at constant air pressure. During this control test the number of cough pulses was counted with the help of a pressure transmitter. From these measurements an average control value for each group was calculated. After this preliminary control test, there was given subcutaneously to each animal of each group a suspension of the active substance in 1% sodium carboxymethyl cellulose. After 30 minutes each animal was again exposed in the test chamber for 8 minutes to the aerosol of 20% citric acid and the number of cough pressure pulses recorded. The different active substances were administered in increasing doses ranging from 3 mg/kg to 100 mg/kg of body weight. Altogether eight different doses were given. The results were expressed as percent deviation from the average control value for the group on the same day, the deviation being entered in a diagram against the logarithm of the dose administered. From the resulting effectiveness curve, based on the logarithm of the dose, the coefficient of correlation and the ED50 were calculated for each active substance, by the regression analysis method of Downie and Heath (1965). The values obtained for codeine phosphate, for d-glaucine hydrobromide, for d,l-glaucine hydrobromide and for l-glaucine hydrobromide thirty minutes after administering the active substance are summarized in Table I.

SMILES | Rising slope of curve
COc1cc2c(cc1OC)-c1c(OC)c(OC)cc3c1C(C2)N(C)CC3 (racemic) [d,l-glaucine hydrobromide] | -57.8
COc1cc2c(cc1OC)-c1c(OC)c(OC)cc3c1[C@H](C2)N(C)CC3 [d-glaucine hydrobromide, reference compound] | -60.8
COc1cc2c(cc1OC)-c1c(OC)c(OC)cc3c1[C@@H](C2)N(C)CC3 [l-glaucine hydrobromide] | -70.96

Structures can show the parent of a compound that is named as a salt.
